The record followed here is publication PMC11705650.

Chains of the proteins cited; added tags and fusions are not shown. Lines headed by an entry give the natural chain unless they say otherwise; changes in a name come on top.
UniProt O60260: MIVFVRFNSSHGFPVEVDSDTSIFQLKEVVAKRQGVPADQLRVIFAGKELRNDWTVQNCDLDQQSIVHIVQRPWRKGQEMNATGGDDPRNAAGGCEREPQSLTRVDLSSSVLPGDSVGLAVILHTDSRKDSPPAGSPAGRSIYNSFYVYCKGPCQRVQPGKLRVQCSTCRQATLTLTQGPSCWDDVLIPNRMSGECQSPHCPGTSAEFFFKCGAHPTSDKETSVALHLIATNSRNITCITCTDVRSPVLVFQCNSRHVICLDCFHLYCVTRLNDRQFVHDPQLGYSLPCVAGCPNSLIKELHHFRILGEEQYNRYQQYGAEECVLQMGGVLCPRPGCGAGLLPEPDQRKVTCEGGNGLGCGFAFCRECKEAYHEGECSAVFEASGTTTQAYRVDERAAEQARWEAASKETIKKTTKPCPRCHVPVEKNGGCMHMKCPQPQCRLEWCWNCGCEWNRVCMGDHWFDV
UniProt P30281: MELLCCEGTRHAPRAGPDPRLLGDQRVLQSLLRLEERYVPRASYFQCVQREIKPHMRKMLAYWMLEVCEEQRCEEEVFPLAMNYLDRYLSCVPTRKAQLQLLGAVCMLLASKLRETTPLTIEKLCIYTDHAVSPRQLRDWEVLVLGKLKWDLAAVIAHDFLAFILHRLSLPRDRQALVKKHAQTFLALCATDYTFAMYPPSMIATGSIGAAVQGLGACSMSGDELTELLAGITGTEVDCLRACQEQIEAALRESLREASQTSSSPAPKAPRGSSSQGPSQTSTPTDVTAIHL
UniProt P08670: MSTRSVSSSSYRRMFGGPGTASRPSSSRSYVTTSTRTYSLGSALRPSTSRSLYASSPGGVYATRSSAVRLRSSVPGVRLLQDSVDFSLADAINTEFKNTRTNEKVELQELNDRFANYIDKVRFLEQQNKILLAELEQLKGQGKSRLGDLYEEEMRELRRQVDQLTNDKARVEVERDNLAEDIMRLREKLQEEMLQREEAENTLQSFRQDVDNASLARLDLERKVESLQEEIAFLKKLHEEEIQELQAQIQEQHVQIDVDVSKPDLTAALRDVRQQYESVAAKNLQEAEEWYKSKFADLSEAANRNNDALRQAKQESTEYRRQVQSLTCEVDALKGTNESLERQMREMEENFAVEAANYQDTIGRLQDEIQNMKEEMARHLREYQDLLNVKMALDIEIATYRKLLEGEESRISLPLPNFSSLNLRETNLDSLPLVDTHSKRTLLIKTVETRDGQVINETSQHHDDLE

Results are given in words; binding and its absence hold for the method and conditions named. Binding seen in cells or lysates may run through a third protein. Some results given as binding are weak or reduced against the parent protein; the word gives no strength.

The target of experiment [1] is flag-labeled PARK2 (E3 ubiquitin ligase) (UniProt O60260). Kind of experiment: co-IP; Pierce Co-Immunoprecipitation Kit; lysate of A549-DDP cells transfected with a flag-labeled plasmid (CCND3 or PARK2); anti-flag antibody; irrelevant IgG as negative control; Western blot. (Immunoblotting shows a protein as a band on a membrane.)
The target of experiment [2] is flag-labeled CCND3 (cyclin D3) (UniProt P30281). The description is as above.

Regarding “CCND3 (cyclin D3) of A549-DDP cells (from UniProt P30281-1 1-292)”, the binding entry in experiment [1] is recorded as “binds”. As to vimentin (from UniProt P08670 1-466), the binding entry in experiment [2] and in experiment [1] was “binds” throughout.
